58 compounds from PubChem BioAssay AID2685 (National Center for Advancing Translational Sciences (NCATS), 2010) can be followed below.

This experiment is described as follows: qHTS Assay for Lipid Storage Modulators in Drosophila S3 Cells.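 As to cell number change: cells counted by Cell Tracker Red CMTPX staining in the red channel.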 The conditions noted are these: BODIPY lipid droplet fluorescence, 18-24 h; for cell number change: measured here: cell count max response, cells fed with added oleic acid. A digest of the protocol:
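Laser-scanning cytometry quantifies lipid droplet accumulation (500–530 nm total intensity; droplet/cell object ratio) in oleic acid-fed (400 uM added) Drosophila S3 cells treated with a concentration series. 20 uM Triacsin C defined 100% inhibition.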
Background: Quantitative high-throughput screening tests each substance at several concentrations.

Where [1] appears, read: measured here: lipid fluorescence (Fed channel) AC50, cells fed with added oleic acid.
Setting [2] is: measured here: cell number channel AC50, cells fed with added oleic acid.

Each structure is given as a SMILES string. “And” between values parts separate entries of the source, which are not always exact repeats. Equal values may be shown once. Some of the results follow. Shown are side measurements of this screen, not its main read-out; they come without a call. Compounds called inactive in the main read-out are mostly missing here. The note in brackets gives the kind of curve behind each potency; many fits are weak.

What is called AC50 is the concentration giving half of the maximal activity seen. Consider `COC(=O)CCCC[C@H]1SC[C@H]2NC(=O)N[C@]21O`, for which the cell number change was 3.73%. The AC50 under setting [1] was 29.1 µM [falling, single point].
Consider `CCN(CC)S(=O)(=O)c1ccc(N=NC2=C(O)CC(C)(C)CC2=O)cc1`, for which the cell number change came out at 1.88%. Further, the half-maximal activity concentration (AC50) under setting [1] is 7.31 µM [rising, partial curve, poor fit].
Turning to `Nc1cc(-c2ccc(Br)cc2)[nH]n1`, the cell number change was -4.28%. Further, under setting [1], the concentration at half-maximal activity (AC50) is 10.3 µM [rising, partial curve].
For the compound `S=C(Nc1ccccc1Cl)N(Cc1cccnc1)Cc1ccco1`, the AC50 under setting [2] is 6.51 µM [rising, single point].
On to `O=C(O)C1C2C=CC(CC2)C1C(=O)O` (configuration not stated), for which the cell number change is -14.2%. The half-maximal activity concentration (AC50) under setting [1] is 2.06 µM [falling, partial curve, poor fit].
Turning to `CCCCNC(=S)Nc1ccc(SC(F)F)cc1`, the cell number change was 6.84%.
Consider `Cc1nc2cc(-c3ccccc3)nn2c(N)c1-c1ccccc1`, for which the cell number change turned out to be 30.9%. The half-maximal activity concentration (AC50) under setting [2] was 0.0259 µM [rising, full curve, poor fit]. Moreover, the AC50 under setting [1] was 0.0146 µM [rising, partial curve, poor fit].
Turning to `Cc1cccc(CNC(=O)Cn2ccc3cc(S(=O)(=O)N4CCCCCC4)ccc32)c1`, the cell number change was -35.7%. Further, the half-maximal activity concentration (AC50) under setting [2] is 5.17 µM [falling, partial curve, poor fit]. Moreover, the concentration at half-maximal activity (AC50) under setting [1] is 1.46 µM [falling, partial curve].
`CCSc1cc(N2CCCC2)nc(-c2ccccc2)n1`: the cell number change worked out at 8.93%.
Take `O=C(O)c1ncc(Cl)c(Cl)c1Cl`: the cell number change is -18.4% and -10.9%. The half-maximal activity concentration (AC50) under setting [2] is 0.058 µM [falling, full curve, poor fit]. Besides, the AC50 under setting [1] is 820 nM [falling, full curve] and 58 nM [falling, full curve, poor fit].
On to `O=[N+]([O-])c1cccc(/C=C2\CCC(/C=N/Nc3ccc4ccccc4n3)=C2N2CCOCC2)c1`, for which the cell number change was found to be 16.8%. Besides, the half-maximal activity concentration (AC50) under setting [1] was 1.3 µM [rising, full curve, poor fit].
As for `COC(=O)c1cc2c(ccn2-c2ccc(F)cc2)n1CC(=O)N1CCN(C(=O)c2ccco2)CC1`, the cell number change was -25.4%. Further, the concentration at half-maximal activity (AC50) under setting [1] was 0.231 µM [rising, full curve, poor fit].
In the case of `C=CCn1c(=O)c(C(C)=O)cn(N(C)c2ncc(C(F)(F)F)cc2Cl)c1=O`, the cell number change stood at 7.73%.
As for `O=C1CC(c2cccc(Br)c2)C2=C(COC2=O)N1` (configuration not stated), the cell number change was -39.4%. Under setting [2], the AC50 is 0.164 µM [falling, full curve, poor fit]. Under setting [1], the AC50 was 0.00517 µM [falling, full curve, poor fit].
With `CN1CCN(c2ccc(S(=O)(=O)N3CCOCC3)cc2NC(=O)Cc2ccccc2F)CC1`, the cell number change is 16%. Also, under setting [2], the AC50 was 0.259 µM [rising, partial curve, poor fit].
Regarding `Cc1c(N=C2Nc3cccc4cccc2c34)c(=O)n(-c2ccccc2)n1C`, the cell number change is 26.7%. For the same compound, the AC50 under setting [1] was 0.259 µM [falling, full curve].
In the case of `CC1C2(C)OC(=N)C(C#N)(C(C)O2)C1(C#N)C#N` (configuration not stated), the concentration at half-maximal activity (AC50) under setting [1] is 0.206 µM [rising, full curve, poor fit].
As for `Cc1cc(C)n2nc(C(=O)N3CCN(Cc4ccc5c(c4)OCO5)CC3)nc2n1`, the cell number change is -19.8%. Also, under setting [1], the AC50 was 2.06 µM [falling, partial curve].
As to `Cc1cccc(C(=O)Nc2ccc(NC(=O)c3ccccc3)cc2)c1`, the cell number change was -24.1%. For the same compound, the AC50 under setting [1] was 23.1 µM [falling, single point].
As to `CCn1c2c(c(C)cc1=O)C(=O)CC(C)(C)C2`, the half-maximal activity concentration (AC50) under setting [2] is 0.461 µM [falling, single point].
For the compound `CCOc1ccc(-n2c(SC)nc3c(c2=O)SCC3)cc1`, the cell number change was -17.7%. Also, the AC50 under setting [1] was 0.206 µM [falling, full curve].
Regarding `Cc1cc(NC(=O)CSc2nnc3c(C)cc4cc5c(cc4n23)OCO5)no1`, the cell number change is -1.55%.
`CN1CCCN(C(=O)Cc2c(Cl)cccc2Cl)c2nc3ccccc3nc21`: the cell number change was -14.2%. In addition, the AC50 under setting [1] was 1.64 µM [rising, partial curve].
For the compound `COc1ccc2oc(C(=O)Nc3nc(C)cs3)c(C)c2c1`, the cell number change was -17.5%. Further, the AC50 under setting [1] was 2.59 µM [falling, full curve].
As to `COc1cccc(/C=N/NC(=O)c2nc(-c3ccccc3)cc(-c3ccccc3)n2)c1`, the AC50 under setting [1] was 13 µM [falling, partial curve].
As to `O=C(C/C=N\OCc1ccc([N+](=O)[O-])cc1)Nc1ccc(Cl)cc1`, the cell number change was 5.16%. The AC50 under setting [1] was 0.116 µM [falling, partial curve, poor fit].
For `Cc1ccc(NC(=O)N2CCC(C(=O)c3ccc(F)cc3)CC2)cc1`, the cell number change amounted to 12.6%. For the same compound, under setting [1], the AC50 is 6.51 µM [rising, single point].
With `COc1cc(C(=O)NCc2cc3cc(Cl)ccc3n2C)cc(OC)c1OC`, the cell number change is -29.4%.
For the compound `CN(C)CC/C=C1\c2cc(F)ccc2CSc2ccccc21`, the cell number change was -7.16%. The half-maximal activity concentration (AC50) under setting [1] is 20.6 µM [rising, single point].
In the case of `COc1cccc(-c2ccc(SCC(=O)N3CCOCC3)nn2)c1`, the cell number change was -33.3%. Further, the half-maximal activity concentration (AC50) under setting [2] is 1.84 µM [falling, partial curve]. The AC50 under setting [1] was 1.46 µM [falling, partial curve].
For `CCCCCCCN(C(=O)CCl)c1cccc(C)c1`, the cell number change was -31.8%. Besides, the AC50 under setting [2] was 20.6 µM [falling, single point]. Further, the AC50 under setting [1] is 20.6 µM [falling, single point].
Regarding `CC(=O)C1=C(O)C(=O)N(CCC(=O)O)C1c1ccccc1[N+](=O)[O-]` (configuration not stated), the cell number change worked out at 9.19%. Moreover, the AC50 under setting [1] is 0.326 µM [falling, partial curve, poor fit].
Take `CCC(C)(C)NC(=O)C(c1ccc(C)cc1)N(Cc1ccco1)C(=O)CCC(=O)Nc1nccs1` (configuration not stated): the cell number change was -41.9%. Also, the AC50 under setting [2] was 29.1 µM [falling, single point]. The AC50 under setting [1] was 3.66 µM [falling, single point].
In the case of `CCn1c(COc2ccc(C)cc2)nnc1SCC(=O)Nc1ccc2c(c1)OCCO2`, the cell number change is -1.49%. For the same compound, under setting [1], the AC50 was 0.13 µM [falling, full curve, poor fit].
On to `COc1ccc(CNC(=O)COC(=O)CCn2c(C)csc2=O)cc1OC`, for which the cell number change is 3.19%.
On to `Cc1ccc(C(=O)c2ccccc2C(=O)O)cc1C`, for which, under setting [2], the AC50 is 0.58 µM [falling, single point].
With `c1ccc(C2Oc3ccccc3C3CC(c4cccs4)=NN32)cc1` (configuration not stated), the cell number change was -11.8%. For the same compound, the AC50 under setting [1] was 36.6 µM [falling, partial curve, poor fit].
As for `O=C(COc1ccccc1)N1CCN=C1SCc1cccnc1`, the cell number change is -1.19%. In addition, the half-maximal activity concentration (AC50) under setting [2] was 2.06 µM [falling, partial curve].
For the compound `COc1ccc(S(=O)(=O)Nc2ccc3oc(C)c(C(C)=O)c3c2)cc1`, the cell number change is 5.94%. The AC50 under setting [1] is 2.06 µM [rising, partial curve].
Turning to `COc1ccc(C)cc1NC(=O)c1ccc(-c2ccc(C(C)=O)cc2)o1`, the cell number change was 44.8%. Further, the concentration at half-maximal activity (AC50) under setting [2] is 0.651 µM [rising, full curve]. Besides, the AC50 under setting [1] was 4.11 µM [rising, full curve].
With `Cc1ccc(NC(=O)N2CCN(Cc3ccc4c(c3)OCO4)CC2)cc1`, the cell number change is -48.5%. Besides, under setting [2], the AC50 is 20.6 µM [falling, single point]. The half-maximal activity concentration (AC50) under setting [1] was 29.1 µM [falling, single point].
`Cc1cc(Br)c2c(c1)/C(=C/C(=O)c1cccs1)C(=O)N2`: the cell number change is -8.34%. The AC50 under setting [1] is 0.13 µM [rising, single point].
On to `Cc1c(C(=O)N2CCCCC2)c(S(=O)(=O)NCc2ccc(Cl)cc2)c(C)n1C`, for which the cell number change turned out to be 8.56%.
For `COc1cccc(NC(=S)N/N=C2\CC(C)(C)Oc3ccc(O)cc32)c1`, the cell number change was found to be 5.86%. Moreover, under setting [1], the half-maximal activity concentration (AC50) was 2.31 µM [rising, partial curve, poor fit].
For the compound `COC(c1ccccc1)c1nnc(CCC(=O)NCc2ccc3ncccc3c2)o1` (configuration not stated), the cell number change was -9.27%. For the same compound, under setting [1], the AC50 is 29.1 µM [falling, single point].
As for `COC(=O)c1ccc(NCCC(=O)O)cc1`, the cell number change was 1.65%.
Turning to `COc1cc(/C=N/n2c(C)n[nH]c2=S)ccc1OCc1ccc(F)cc1`, the cell number change is 34.5%. Under setting [2], the AC50 was 18.4 µM [rising, partial curve, poor fit]. Besides, under setting [1], the half-maximal activity concentration (AC50) was 20.6 µM [rising, partial curve].
As to `COc1cc(Cl)ccc1OCc1cc(C(=O)NC(C)Cc2cnccn2)no1` (configuration not stated), the cell number change came out at 15.2%. Moreover, the half-maximal activity concentration (AC50) under setting [1] is 0.259 µM [rising, full curve].
As to `NC(=O)c1ccccc1Br`, the cell number change came out at 0.543%. Further, under setting [1], the AC50 is 3.66 µM [falling, single point].
Turning to `CCN=c1scc(C)n1/N=C/c1cc(Br)c(O)c(OC)c1`, the cell number change was -3.91%. Further, under setting [2], the AC50 is 6.51 µM [falling, single point]. Besides, the AC50 under setting [1] was 6.51 µM [falling, single point].
For the compound `Cc1ccc(NC(=S)N2CCN(S(C)(=O)=O)CC2)cc1C`, the cell number change came out at 24%.
Turning to `COc1cc(CCC(=O)N2CC(C)OC(C)C2)cc(OC)c1OC` (configuration not stated), the cell number change worked out at 0.587%. For the same compound, under setting [1], the AC50 is 25.9 µM [falling, single point].
Consider `Cc1cc2c([nH]c3ccccc32)c2c1OC(C)(C)C=C2`, for which the cell number change was -55.5%. Under setting [2], the half-maximal activity concentration (AC50) was 16.4 µM [falling, single point]. In addition, the concentration at half-maximal activity (AC50) under setting [1] is 29.1 µM [falling, single point].
On to `COc1ccccc1NC(=O)c1ccc(N2CC3CC(C2)c2cccc(=O)n2C3)c(NC(=O)c2ccncc2)c1` (configuration not stated), for which the cell number change stood at 20.2%. The AC50 under setting [1] is 0.13 µM [rising, full curve, poor fit].
With `COc1ccc(/C=N/NC(C)(C)C)c(OC)c1`, the cell number change is 33.8%. The AC50 under setting [2] is 11.6 µM [rising, single point]. In addition, the AC50 under setting [1] was 3.66 µM [falling, single point].
`CCOc1ncccc1C(=O)N1CCN(c2cc(Cl)ccc2C)CC1`: the cell number change is 17.5%. The concentration at half-maximal activity (AC50) under setting [2] is 0.517 µM [rising, full curve, poor fit]. The AC50 under setting [1] is 0.651 µM [falling, single point].
As for `COC(=O)c1cc(OC)c(OC)cc1NC(=O)c1ccccc1`, the cell number change was 29.4%. Moreover, the AC50 under setting [2] was 1.84 µM [rising, full curve, poor fit]. The half-maximal activity concentration (AC50) under setting [1] is 5.8 µM [rising, full curve].
Regarding `CCOC(=O)c1ccccc1NC(=O)COC(=O)CSc1ccccc1`, the cell number change was -13.4%. The concentration at half-maximal activity (AC50) under setting [1] is 0.092 µM [falling, full curve, poor fit].
